From PMC4975489, “The Arabidopsis Protein Phosphatase PP2C38 Negatively Regulates the Central Immune Kinase BIK1” (PLoS Pathogens, 2016) come the findings set out here.

Protein sequences, listed by entry. Tags and fused reporters are not part of them. Lines headed by an entry give the natural chain unless they say otherwise; changes in a name come on top. Residues count along the entry.
UniProt C0LGT6, residues 25-1031: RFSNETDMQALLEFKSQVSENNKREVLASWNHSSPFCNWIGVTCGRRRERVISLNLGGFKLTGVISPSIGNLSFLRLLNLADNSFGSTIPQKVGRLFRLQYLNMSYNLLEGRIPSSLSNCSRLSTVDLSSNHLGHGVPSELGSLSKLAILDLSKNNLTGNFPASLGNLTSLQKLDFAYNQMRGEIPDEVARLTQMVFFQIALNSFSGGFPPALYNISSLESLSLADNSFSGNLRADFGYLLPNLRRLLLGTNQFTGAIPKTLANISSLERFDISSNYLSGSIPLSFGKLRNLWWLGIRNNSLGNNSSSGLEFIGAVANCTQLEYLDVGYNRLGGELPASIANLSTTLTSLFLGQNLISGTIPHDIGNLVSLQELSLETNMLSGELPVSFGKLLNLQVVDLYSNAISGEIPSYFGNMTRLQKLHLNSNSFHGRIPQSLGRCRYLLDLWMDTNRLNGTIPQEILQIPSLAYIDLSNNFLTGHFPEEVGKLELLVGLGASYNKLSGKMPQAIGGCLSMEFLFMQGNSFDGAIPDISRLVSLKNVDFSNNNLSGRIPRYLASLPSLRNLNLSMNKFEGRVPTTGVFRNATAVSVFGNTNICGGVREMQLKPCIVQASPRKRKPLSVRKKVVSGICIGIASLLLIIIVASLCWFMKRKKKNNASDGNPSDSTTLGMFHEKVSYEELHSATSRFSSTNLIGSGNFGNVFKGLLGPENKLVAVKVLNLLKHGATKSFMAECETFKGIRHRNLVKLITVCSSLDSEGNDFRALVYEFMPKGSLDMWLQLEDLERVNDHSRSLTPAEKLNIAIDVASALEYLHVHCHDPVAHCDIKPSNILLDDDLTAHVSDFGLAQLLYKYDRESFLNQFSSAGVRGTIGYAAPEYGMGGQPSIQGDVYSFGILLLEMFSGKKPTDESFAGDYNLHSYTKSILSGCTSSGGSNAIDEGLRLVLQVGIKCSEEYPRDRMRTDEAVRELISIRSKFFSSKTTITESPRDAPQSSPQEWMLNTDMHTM
UniProt Q9FL28: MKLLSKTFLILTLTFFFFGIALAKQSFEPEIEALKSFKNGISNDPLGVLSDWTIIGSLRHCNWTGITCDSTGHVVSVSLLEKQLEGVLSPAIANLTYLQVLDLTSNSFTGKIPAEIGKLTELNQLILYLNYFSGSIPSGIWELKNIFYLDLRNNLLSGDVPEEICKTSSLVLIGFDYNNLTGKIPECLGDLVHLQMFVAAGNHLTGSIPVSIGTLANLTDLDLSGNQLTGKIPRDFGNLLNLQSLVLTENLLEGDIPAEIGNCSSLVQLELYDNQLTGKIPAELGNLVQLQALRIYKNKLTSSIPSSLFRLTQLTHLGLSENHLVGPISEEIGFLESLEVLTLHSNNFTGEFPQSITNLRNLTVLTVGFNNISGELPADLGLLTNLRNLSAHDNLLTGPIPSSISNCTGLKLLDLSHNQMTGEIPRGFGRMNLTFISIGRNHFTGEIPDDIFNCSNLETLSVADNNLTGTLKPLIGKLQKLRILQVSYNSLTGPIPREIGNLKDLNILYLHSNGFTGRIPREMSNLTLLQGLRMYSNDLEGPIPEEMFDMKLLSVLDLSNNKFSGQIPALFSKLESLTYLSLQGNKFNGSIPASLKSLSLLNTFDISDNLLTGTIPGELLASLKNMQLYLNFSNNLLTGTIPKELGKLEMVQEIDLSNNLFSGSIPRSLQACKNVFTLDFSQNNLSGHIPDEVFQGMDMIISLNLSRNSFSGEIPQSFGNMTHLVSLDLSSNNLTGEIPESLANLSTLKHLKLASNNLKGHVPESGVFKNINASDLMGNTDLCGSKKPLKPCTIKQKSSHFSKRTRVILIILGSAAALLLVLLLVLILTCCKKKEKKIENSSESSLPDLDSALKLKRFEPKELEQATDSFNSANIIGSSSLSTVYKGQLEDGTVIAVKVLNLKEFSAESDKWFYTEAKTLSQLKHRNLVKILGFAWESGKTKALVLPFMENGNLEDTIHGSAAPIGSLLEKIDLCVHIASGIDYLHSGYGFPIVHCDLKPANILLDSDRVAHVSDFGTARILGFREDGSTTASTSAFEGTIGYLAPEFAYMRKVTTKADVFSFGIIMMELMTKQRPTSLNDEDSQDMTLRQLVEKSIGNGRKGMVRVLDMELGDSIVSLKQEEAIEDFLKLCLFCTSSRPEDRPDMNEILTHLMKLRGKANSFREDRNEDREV
UniProt Q93YW5: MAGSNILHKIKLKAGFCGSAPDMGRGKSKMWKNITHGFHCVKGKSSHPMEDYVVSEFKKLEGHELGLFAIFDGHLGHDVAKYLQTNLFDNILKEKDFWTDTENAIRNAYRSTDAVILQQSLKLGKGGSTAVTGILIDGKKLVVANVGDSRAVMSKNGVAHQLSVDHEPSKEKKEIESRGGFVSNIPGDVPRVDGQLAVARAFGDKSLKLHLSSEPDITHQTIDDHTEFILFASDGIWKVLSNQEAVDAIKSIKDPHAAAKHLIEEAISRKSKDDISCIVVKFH

Results are given in words; binding and its absence hold for the method and conditions named. In cells and extracts the contact can be indirect. For some of these results: Binding can be weak; no strength is given. For some of these results: Tags and fused reporters may be left off the sequences shown.

What all share (assay): co-IP; proteins transiently co-expressed in N. benthamiana leaves, treated or not with 100 nM elf18 or flg22 for 20 min; GFP-Trap immunoprecipitation at 4°C, immunoblot
(In western blotting, separated proteins are transferred to a membrane and probed.)

For assay [1], the target named is full-length EFR-GFP (Arabidopsis thaliana) (UniProt C0LGT6).
Assay [2] addresses kinase-dead EFR* (Arabidopsis thaliana) (UniProt C0LGT6).
Assay [3] concerns the target kinase-dead FLS2* (Arabidopsis thaliana) (UniProt Q9FL28).

With “PP2C58-FLAG (from UniProt Q93YW5) (enzyme)”, in assay [1], the binding result is given as “no binding”.

Take “PP2C58-HA (from UniProt Q93YW5) (enzyme)”: the binding result in assay [1] is recorded as “no binding”.

B1: recombinant MBP-PP2C38 (enzyme, Arabidopsis thaliana, UniProt Q9LHJ9 1-385, looked up)
chain: MVSSATILRMVAPCWRRPSVKGDHSTRDANGRCDGLLWYKDSGNHVAGEFSMSVIQANNLLEDHSKLESGPVSMFDSGPQATFVGVYDGHGGPEAARFVNKHLFDNIRKFTSENHGMSANVITKAFLATEEDFLSLVRRQWQIKPQIASVGACCLVGIICSGLLYIANAGDSRVVLGRLEKAFKIVKAVQLSSEHNASLESVREELRSLHPNDPQIVVLKHKVWRVKGIIQVSRSIGDAYLKKAEFNREPLLAKFRVPEVFHKPILRAEPAITVHKIHPEDQFLIFASDGLWEHLSNQEAVDIVNTCPRNGIARKLIKTALREAAKKREMRYSDLKKIDRGVRRHFHDDITVIVVFLDSHLVSRSTSRRPLLSISGGGDLAGPST
notes: PP2C38, protein phosphatase 2C of Arabidopsis thaliana (At3g12620); 'PP2C38 CDS was inserted between BamHI and SalI restriction sites of pMAL-c4E'; source: recombinant protein (PP2C38 CDS in pMAL-c4E, NEB)
In the case of B1, the binding result in assay [2] and in assay [3] was “binds” each time.
